Data source: PubChem BioAssay AID652243 (Drosophila RNAi Screening Center, 2013)

- Screen: 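Fly regulators of androgen-dependent reporter output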 (primary screen)
- Cells: Drosophila S2R+ cells
- Reagent: long dsRNA against Drosophila genes
- Time to read-out: 72 h (48 h, then 24 h hormone)
- Treatment: synthetic androgen R1881 at 10 nM for 24 h
- Measurement: 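Firefly light from an androgen-responsive reporter and Renilla control light per well, raw and unnormalised, for each of two replicates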
- Direction: firefly reporter light: higher = more light from androgen-responsive reporter; Renilla control light: higher = more constitutive control signal (cell number, transfection)
- Call rule: 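Across duplicate plates, a knock-down whose log firefly/Renilla ratio shifted a set fold down or up from the GFP/LacZ control mean was a hit; the downward cut appears as both 1.5 and 3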
- Meaning of the calls: active = hit: reporter lowered or raised; inactive = no hit
The deposit covers about 24,000 reagents; below is an unselected part of those that have a named target and a result. Of all reagents, 246 (1%) are marked active. 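Plates not normalised; calls are printed but the firefly/Renilla ratio behind them is not deposited; fold cut for lowering reported inconsistently.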 Raw values are not corrected between plates. A number with no mark means an inactive call. The record does not give: the amount of reagent.

Which result is listed for CG7135 [DRSC20026]?
firefly reporter light, replicate 1: 3.77e5; firefly reporter light, replicate 2: 3.00e5; Renilla control light, replicate 1: 3.54e6; Renilla control light, replicate 2: 2.37e6

What did the screen give for CG7135 [DRSC29942]?
firefly reporter light, replicate 1: 8.42e5; firefly reporter light, replicate 2: 6.10e5; Renilla control light, replicate 1: 1.35e6; Renilla control light, replicate 2: 1.70e6

Which result is listed for CG41020 (retired record) [DRSC38780]?
firefly reporter light, replicate 1: 9.66e5; firefly reporter light, replicate 2: 8.07e5; Renilla control light, replicate 1: 1.74e6; Renilla control light, replicate 2: 1.62e6

With Gr36a (Gustatory receptor 36a) [DRSC22663], what was measured?
firefly reporter light, replicate 1: 7.91e5; firefly reporter light, replicate 2: 7.38e5; Renilla control light, replicate 1: 1.23e6; Renilla control light, replicate 2: 1.47e6

What is on record for Gr36a (Gustatory receptor 36a) [DRSC27724]?
firefly reporter light, replicate 1: 2.23e5; firefly reporter light, replicate 2: 1.85e5; Renilla control light, replicate 1: 6.30e5; Renilla control light, replicate 2: 8.38e5

How did the screen score gas (gasoline) [DRSC04521]?
firefly reporter light, replicate 1: 2.80e5; firefly reporter light, replicate 2: 2.85e5; Renilla control light, replicate 1: 2.04e6; Renilla control light, replicate 2: 1.39e6

With CG15120 [DRSC06542], what does the deposit list?
firefly reporter light, replicate 1: 93733; firefly reporter light, replicate 2: 1.35e5; Renilla control light, replicate 1: 1.91e6; Renilla control light, replicate 2: 1.45e6

For CG4294 [DRSC04460], what was measured?
firefly reporter light, replicate 1: 7.29e5; firefly reporter light, replicate 2: 5.69e5; Renilla control light, replicate 1: 8.77e5; Renilla control light, replicate 2: 7.76e5

For pigs (pickled eggs) [DRSC17472], what was measured?
firefly reporter light, replicate 1: 7.34e5; firefly reporter light, replicate 2: 5.54e5; Renilla control light, replicate 1: 3.97e5; Renilla control light, replicate 2: 3.62e5

How did the screen score pigs (pickled eggs) [DRSC18334]?
firefly reporter light, replicate 1: 3.61e5; firefly reporter light, replicate 2: 4.26e5; Renilla control light, replicate 1: 2.48e6; Renilla control light, replicate 2: 1.60e6

What is on record for pigs (pickled eggs) [DRSC18335]?
firefly reporter light, replicate 1: 3.59e5; firefly reporter light, replicate 2: 3.28e5; Renilla control light, replicate 1: 2.84e6; Renilla control light, replicate 2: 3.08e6

With CG34247 [DRSC09933], what was measured?
firefly reporter light, replicate 1: 3.80e5; firefly reporter light, replicate 2: 2.92e5; Renilla control light, replicate 1: 3.56e6; Renilla control light, replicate 2: 2.78e6

Copied from the list:
Under “Renilla control light, replicate 1”, pigs (pickled eggs) [DRSC18334] reads 2.48e6
For “Renilla control light, replicate 1”, Gr36a (Gustatory receptor 36a) [DRSC27724] reads 6.30e5
